Measurements as given in paper PMC10594569.
Read-outs that look alike come from different tables or passages of the source. Results are given in words; binding and its absence hold for the method and conditions named. In cells and extracts the contact can be indirect. Some binding calls cover weakened binding; strength is not graded here.

The chains behind the UniProt entries cited, without tags or fusion partners.
UniProt Q3UHD9: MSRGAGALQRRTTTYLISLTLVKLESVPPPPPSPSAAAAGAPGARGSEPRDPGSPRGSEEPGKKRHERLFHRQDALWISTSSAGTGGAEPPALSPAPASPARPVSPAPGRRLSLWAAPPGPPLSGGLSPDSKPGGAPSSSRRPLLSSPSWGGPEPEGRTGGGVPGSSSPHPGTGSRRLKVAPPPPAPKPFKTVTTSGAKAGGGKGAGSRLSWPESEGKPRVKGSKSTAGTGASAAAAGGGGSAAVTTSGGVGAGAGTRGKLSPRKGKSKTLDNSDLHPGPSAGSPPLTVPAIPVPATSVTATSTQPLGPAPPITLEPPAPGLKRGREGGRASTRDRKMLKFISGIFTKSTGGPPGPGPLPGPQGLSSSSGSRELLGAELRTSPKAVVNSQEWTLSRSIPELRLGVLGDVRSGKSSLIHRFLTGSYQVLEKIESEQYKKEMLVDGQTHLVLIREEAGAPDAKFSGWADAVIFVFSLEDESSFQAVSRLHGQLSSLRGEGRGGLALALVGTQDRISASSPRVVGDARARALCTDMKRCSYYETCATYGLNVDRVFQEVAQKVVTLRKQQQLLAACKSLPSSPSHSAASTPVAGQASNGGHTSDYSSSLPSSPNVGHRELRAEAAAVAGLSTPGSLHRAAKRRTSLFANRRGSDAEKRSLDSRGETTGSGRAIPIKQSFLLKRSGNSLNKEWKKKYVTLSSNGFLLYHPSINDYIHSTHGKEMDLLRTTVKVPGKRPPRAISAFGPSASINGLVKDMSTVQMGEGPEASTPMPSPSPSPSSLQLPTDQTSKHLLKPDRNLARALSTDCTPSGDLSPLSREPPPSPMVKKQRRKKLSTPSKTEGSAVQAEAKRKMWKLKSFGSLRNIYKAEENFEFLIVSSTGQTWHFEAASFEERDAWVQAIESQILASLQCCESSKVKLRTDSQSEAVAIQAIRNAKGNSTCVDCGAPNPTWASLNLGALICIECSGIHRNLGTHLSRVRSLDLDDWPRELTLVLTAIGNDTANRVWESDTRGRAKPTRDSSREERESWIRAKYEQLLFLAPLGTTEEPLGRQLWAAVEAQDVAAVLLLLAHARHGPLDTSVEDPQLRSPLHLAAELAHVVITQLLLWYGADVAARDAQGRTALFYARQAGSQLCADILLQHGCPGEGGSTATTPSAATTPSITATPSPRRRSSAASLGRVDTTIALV
UniProt P63073: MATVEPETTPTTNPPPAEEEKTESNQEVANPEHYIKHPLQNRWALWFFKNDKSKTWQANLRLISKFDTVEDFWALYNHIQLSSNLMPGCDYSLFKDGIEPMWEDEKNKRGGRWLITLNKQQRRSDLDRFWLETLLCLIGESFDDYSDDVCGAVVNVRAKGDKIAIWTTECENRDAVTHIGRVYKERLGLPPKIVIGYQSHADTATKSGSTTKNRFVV
UniProt Q6QI06: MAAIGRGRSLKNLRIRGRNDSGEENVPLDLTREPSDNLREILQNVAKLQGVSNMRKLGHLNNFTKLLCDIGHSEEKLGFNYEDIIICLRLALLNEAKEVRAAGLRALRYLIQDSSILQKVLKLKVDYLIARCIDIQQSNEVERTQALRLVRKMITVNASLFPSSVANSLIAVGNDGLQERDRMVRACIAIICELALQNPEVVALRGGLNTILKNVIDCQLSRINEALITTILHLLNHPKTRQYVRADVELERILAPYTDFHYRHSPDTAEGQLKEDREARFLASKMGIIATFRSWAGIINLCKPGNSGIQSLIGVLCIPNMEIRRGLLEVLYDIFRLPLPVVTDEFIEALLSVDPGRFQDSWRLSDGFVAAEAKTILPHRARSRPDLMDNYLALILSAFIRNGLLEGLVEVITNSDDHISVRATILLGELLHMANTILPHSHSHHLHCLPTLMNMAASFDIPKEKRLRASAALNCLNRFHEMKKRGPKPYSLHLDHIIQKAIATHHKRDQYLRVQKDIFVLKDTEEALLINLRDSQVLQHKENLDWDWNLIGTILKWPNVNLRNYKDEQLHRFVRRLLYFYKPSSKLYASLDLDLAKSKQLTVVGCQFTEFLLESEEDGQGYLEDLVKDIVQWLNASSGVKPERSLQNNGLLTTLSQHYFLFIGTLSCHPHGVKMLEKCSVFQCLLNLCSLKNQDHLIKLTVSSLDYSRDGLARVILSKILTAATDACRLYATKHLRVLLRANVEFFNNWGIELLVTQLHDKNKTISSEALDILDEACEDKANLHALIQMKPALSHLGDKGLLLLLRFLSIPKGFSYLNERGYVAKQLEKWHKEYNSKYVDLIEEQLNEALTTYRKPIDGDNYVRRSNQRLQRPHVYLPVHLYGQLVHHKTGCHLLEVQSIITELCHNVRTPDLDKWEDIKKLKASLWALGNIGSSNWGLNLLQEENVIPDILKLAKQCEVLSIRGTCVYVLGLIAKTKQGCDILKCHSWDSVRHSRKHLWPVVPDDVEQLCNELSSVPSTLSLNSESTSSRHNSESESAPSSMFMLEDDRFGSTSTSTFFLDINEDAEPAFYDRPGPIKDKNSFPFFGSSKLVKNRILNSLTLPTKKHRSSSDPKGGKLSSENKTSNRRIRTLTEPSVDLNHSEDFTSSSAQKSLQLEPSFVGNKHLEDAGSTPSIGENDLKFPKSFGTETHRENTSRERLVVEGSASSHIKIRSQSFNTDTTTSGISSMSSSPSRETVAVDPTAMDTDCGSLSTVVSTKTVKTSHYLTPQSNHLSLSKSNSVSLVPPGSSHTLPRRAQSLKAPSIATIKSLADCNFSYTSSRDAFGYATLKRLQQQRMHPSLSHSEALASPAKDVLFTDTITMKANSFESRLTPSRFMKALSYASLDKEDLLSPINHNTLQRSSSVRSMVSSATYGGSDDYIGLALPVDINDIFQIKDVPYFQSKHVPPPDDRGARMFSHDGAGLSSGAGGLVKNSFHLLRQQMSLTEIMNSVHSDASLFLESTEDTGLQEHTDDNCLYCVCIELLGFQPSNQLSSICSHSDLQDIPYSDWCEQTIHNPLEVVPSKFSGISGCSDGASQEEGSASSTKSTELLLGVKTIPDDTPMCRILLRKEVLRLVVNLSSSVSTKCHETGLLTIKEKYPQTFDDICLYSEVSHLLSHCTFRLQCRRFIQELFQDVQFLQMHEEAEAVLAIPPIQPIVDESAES
UniProt Q8BSK8: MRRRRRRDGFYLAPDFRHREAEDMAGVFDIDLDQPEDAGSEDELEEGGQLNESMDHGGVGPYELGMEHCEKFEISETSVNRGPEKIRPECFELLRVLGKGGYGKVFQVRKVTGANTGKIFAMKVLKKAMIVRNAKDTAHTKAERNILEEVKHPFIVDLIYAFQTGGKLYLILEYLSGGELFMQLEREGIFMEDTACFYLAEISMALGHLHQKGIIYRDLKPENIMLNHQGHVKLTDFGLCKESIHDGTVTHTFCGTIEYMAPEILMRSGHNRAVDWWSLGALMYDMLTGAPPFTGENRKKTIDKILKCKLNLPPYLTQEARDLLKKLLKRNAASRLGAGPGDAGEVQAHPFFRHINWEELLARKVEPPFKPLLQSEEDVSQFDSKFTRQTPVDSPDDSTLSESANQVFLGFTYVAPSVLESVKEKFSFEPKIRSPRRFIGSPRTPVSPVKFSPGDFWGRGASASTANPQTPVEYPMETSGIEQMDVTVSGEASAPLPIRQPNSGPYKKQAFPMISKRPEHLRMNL

Key:
Assay in all cases: co-IP; quantitative multiplex coimmunoprecipitation (QMI): IP antibodies on Luminex beads in NIH 3T3 lysate (1% digitonin, 150 mM NaCl, 50 mM Tris pH 7.4) overnight at 4 °C, biotinylated probe antibodies, streptavidin-phycoerythrin, median fluorescent intensity of each IP_Probe pair; cells at baseline, serum starved 12 h, or refed 5, 15 or 60 min, without or with BKM120, AZD5363, RAD001, FR180204, U0126, PD98059, Torin-1, sapanisertib or Rapalink-1
[1] = target: PIKE (mouse (endogenous in NIH 3T3)) (UniProt Q3UHD9)
[2] = target: EIF4E (mouse (endogenous in NIH 3T3)) (UniProt P63073)
[3] = target: PIKE (mouse (endogenous in NIH 3T3)) (UniProt Q3UHD9); remark: listed apart in the source
[4] = target: EIF4E (mouse (endogenous in NIH 3T3)) (UniProt P63073); remark: listed apart in the source

With EIF4E (from UniProt P63073 1-217) the binding [1] was “binds”.

In the case of RICTOR (from UniProt Q6QI06 1-1708), the binding [2] is reported as “binds”.

For p70S6 (from UniProt Q8BSK8 1-525), the binding [2] was “binds”.

B1: TSC1 (protein, UniProt Q9EP53 1-1161)
chain: MAQLANIGELLSMLDSSTLGVRDDVTAIFKESLNSERGPMLVNTLVDYYLETNSQPVLHILTTLQEPHDKHLLDKINEYVGKAATRLSILSLLGHVVRLQPSWKHKLSQAPLLPSLLKCLKMDTDVVVLTTGVLVLITMLPMIPQSGKQHLLDFFDIFGRLSSWCLKKPGHVTEVYLVHLHASVYALFHRLYGMYPCNFVSFLRSHYSMKENVETFEEVVKPMMEHVRIHPELVTGSKDHELDPRRWKTLETHDVVIECAKISLDPTEASYEDGYSVSHQLSACFPYRSADVTTSPYVDTQNSYGGSTSTPSSSSRLMLFSPPGQLPQSLSSPSTRLLPEPLQASLWSPSAVCGMTTPPTSPGNVPADLSHPYSKAFGTTAGGKGTPSGTPATSPPPAPPCPQDDCVHGSAAQASATAPRKEERADSSRPYLHRQSNDRGLEDPPGSKGSVTLRNLPDFLGDLASEEDSIEKDKEEAAISKELSEITTAEADPVVPRGGFDSPFYRDSLSGSQRKTHSAASGTQGSSVNPEPLHSSLDKHGPDTPKQAFTPIDPPSGSADVSPAGDRDRQTSLETSILTPSPCKIPPQRGVSFGSGQLPPYDHLFEVALPKTACHFVSKKTEELLKKVKGNPEEDCVPSTSPMEVLDRLIEQGAGAHSKELSRLSLPSKSVDWTHFGGSPPSDELRTLRDQLLLLHNQLLYERFKRQQHALRNRRLLRKVIRAAALEEHNAAMKDQLKLQEKDIQMWKVSLQKEQARYSQLQEQRDTMVTQLHSQIRQLQHDREEFYNQSQELQTKLEDCRNMIAELRVELKKANNKVCHTELLLSQVSQKLSNSESVQQQMEFLNRQLLVLGEVNELYLEQLQSKHPDTTKEVEMMKTAYRKELEKNRSHLLQQNQRLDASQRRVLELESLLAKKDHLLLEQKKYLEDVKSQASGQLLAAESRYEAQRKITRVLELEILDLYGRLEKDGRLRKLEEDRAEAAEAAEERLDCCSDGCTDSLVGHNEEASGHNGETRTSRPGGTRASCGGRVTGGSSSSSSELSTPEKPPSQRFSSRWEPALGEPSSSIPTTVGSLPSSKSFLGMKARELFRNKSESQCDEDSVTMSSSSLSETLKTELGKDSGTENKTSLSLDAPHPSSPNSDNVGQLHIMDYNETHPEHS
B1 was tested, and the binding [3] was “binds” and the binding [4] was “binds”.
